Test results taken from PubChem BioAssay AID540256 (National Center for Advancing Translational Sciences (NCATS), 2011).
The whole screen tested about 300,000 compounds, of which about 3,700 (1.2%) were called active. This list was built around the results that the source calls inconclusive (neither active nor inactive); the mix of calls is not that of the screen. Calls follow the shape of the full dose curve; tested in HEK293 cells. A potency beside an inconclusive call is a rough fit, not a confirmed value.
% is scaled to controls: 0 for no effect and ±100 for the full control effect; potency is read from the fitted curve at half-maximal effect.

Assay: qHTS for Inhibitors of binding or entry into cells for Lassa Virus; also: nearly all actives have a fitted effect of over 50% in size
Conditions: Lassa virus pseudotype entry inhibition, cell reporter; activity change, negative = inhibition: at 37.9 µM (top of the series) unless noted
For `CCOC(=O)C1(Cc2cccc(OC)c2)CCCN(C(=O)c2cc(CC(C)C)[nH]n2)C1` (centres undefined), the Potency was inconclusive: 35.5 µM [inhibitor, single point].
In the case of `COc1ccc(NC(=O)c2sc3nc4c(cc3c2N)CN(Cc2ccccc2)CC4)cc1`, the “activity change, negative = inhibition” value is reported as inactive: 4.95% [at 46.1 µM].
In the case of `COc1cccc(C2C(C(=O)c3cccs3)=C(O)C(=O)N2CCN(C)C)c1OC` (centres undefined), the “activity change, negative = inhibition” value is reported as inactive: 2.19%.
With `CCc1ccc(C2Sc3ccccc3NC3=C2C(=O)c2ccccc23)cc1` (centres undefined) the Potency was inconclusive: 35.5 µM [inhibitor, single point].
With `Cc1ccc2nc(-c3ccc(Cl)cc3)cc(C(=O)OCC(=O)c3ccccc3)c2c1` the “activity change, negative = inhibition” value was inactive: 16.1% [at 46.1 µM].
For `COC(=O)c1cc(S(=O)(=O)N2CCOCC2)c(Cl)cc1N1CCOCC1`, the “activity change, negative = inhibition” value was inactive: -8.42%.
For `CCC1(CC)C(C#N)C(=O)NC(=O)C1C#N` (centres undefined), the Potency was inconclusive: 31.6 µM [activator, single point].
For `COc1ccccc1OCC(=O)Nc1nc2c(s1)CC(C)CC2` (centres undefined), the “activity change, negative = inhibition” value was inactive: 17.1% [at 46.1 µM].
In the case of `CCCOc1ccc(C(=O)CCNc2ccc(C)c(Cl)c2)cc1`, the “activity change, negative = inhibition” value is reported as inactive: 10.2%.
For `Cc1ccc(NC(=O)Cc2c(F)cccc2Cl)cc1S(=O)(=O)N1CCOCC1`, the Potency was inconclusive: 11.2 µM [inhibitor, single point].
With `Cc1cccc(-c2nc(CSc3nncn4c3cc3oc(C)cc34)c(C)o2)c1` the “activity change, negative = inhibition” value was inactive: 16.5% [at 46.1 µM].
For `CSCCC(NC(=O)c1cccc(C)c1)C(=O)Nc1sccc1C(N)=O` (centres undefined), the Potency was inconclusive: 1 µM [inhibitor, full curve, poor fit].
With `COc1ccc2sc(N(CCCN(C)C)C(=O)c3ccc(S(=O)(=O)N4CCc5ccccc5C4)cc3)nc2c1` the Potency was active: 3.55 µM.
With `COc1cccc(NC2=C(NCCO)C(=O)c3ccccc3C2=O)c1` the Potency was inconclusive: 35.5 µM [activator, single point].
In the case of `CCOC(=O)N1CCN(Cc2nc(-c3ccc(Cl)cc3)no2)CC1`, the Potency is reported as inconclusive: 7.08 µM [inhibitor, full curve, poor fit].
With `CN1CCN(Cc2ccc(OCc3ccccc3)cc2)CC1` the Potency was inconclusive: 29.1 µM [inhibitor, single point].
For `CC(=O)Oc1ccc(C(=O)Nc2ccc3c(c2)OCCO3)cc1`, the Potency was inconclusive: 10 µM [inhibitor, partial curve, poor fit].
In the case of `COc1cccc(-c2nn(C)c3sc(C(=O)NCc4ccc(C)o4)cc23)c1`, the Potency is reported as inconclusive: 29.1 µM [inhibitor, single point].
With `O=C(NCCCN1CCOCC1)c1c(O)c2ccccc2[nH]c1=O` the “activity change, negative = inhibition” value was inactive: 0.486%.
With `Cc1sc(NC(=O)c2ccco2)c(CN2CCCCC2)c1C` the Potency was inconclusive: 20.6 µM [inhibitor, partial curve, poor fit].
For `COc1ccc(Oc2c(Cl)cnn(-c3ccc(C)cc3)c2=O)cc1`, the Potency was inconclusive: 35.5 µM [inhibitor, single point].
For `Cc1cccc(N=C/C(C(=O)C(F)(F)F)=C(\O)c2ccco2)c1`, the Potency was inconclusive: 1.12 µM [activator, full curve, poor fit].
With `Cc1ccc(C(C)C)c(OCc2ccc(C(=O)N/N=C/c3ccc(O)c(O)c3)cc2)c1` the Potency was inconclusive: 17.8 µM [inhibitor, single point].
With `Fc1ccc(CNC(=S)Nc2ccc(OC(F)F)cc2)cc1` the Potency was inconclusive: 20.6 µM [inhibitor, single point].
For `COc1ccc2c(c1)C(c1ccc(C)o1)=NNC(c1cccnc1)=N2`, the Potency was inconclusive: 3.16 µM [inhibitor, single point].
In the case of `CN(CC(=O)Nc1ccc(S(=O)(=O)N2CCCC2)cc1)Cc1ccc(Cl)cc1Cl`, the Potency is reported as inconclusive: 16.4 µM [inhibitor, partial curve].
In the case of `O=C(NC1CCCCC1)C(c1cccnc1)N(C(=O)CCl)c1ccc(F)cc1` (centres undefined), the Potency is reported as inconclusive: 14.1 µM [inhibitor, partial curve, poor fit].
For `CCOC(=O)c1cc(-c2ccccc2)n(CC(=O)O)c1C`, the “activity change, negative = inhibition” value was inactive: 13.7%.
For `CC(C)c1ccc2c(c1)[C@H]1OCC[C@H]1[C@@H](c1cccs1)N2`, the Potency was inconclusive: 2.91 µM [inhibitor, full curve].
In the case of `CC(C)N1CCc2c(sc(NC(=O)c3ccc(S(=O)(=O)N(C)C4CCCCC4)cc3)c2C(N)=O)C1`, the Potency is reported as inconclusive: 35.5 µM [inhibitor, single point].
With `c1ccc(-c2noc(CN3CCN(C(c4ccccc4)c4ccccc4)CC3)n2)cc1` the “activity change, negative = inhibition” value was inactive: 1.68%.
With `Cc1ccc(NS(=O)(=O)c2cccc(C(=O)NCC(c3ccco3)N3CCCCC3)c2)cc1` (centres undefined) the Potency was inconclusive: 12.6 µM [inhibitor, single point].
In the case of `N#Cc1ccc(C(=O)NN2C(=O)NC3(CCCCC3)C2=O)cc1`, the Potency is reported as inconclusive: 35.5 µM [activator, single point].
For `COCCOC(=O)C1=C(C)N(Cc2ccccc2)C(=O)NC1c1ccc(OC)cc1` (centres undefined), the Potency was inconclusive: 8.91 µM [inhibitor, partial curve, poor fit].
With `CCOC(=O)c1oc2nc3c(cc2c1N)CCCC3` the Potency was inconclusive: 1.41 µM [activator, partial curve, poor fit].
With `CC(=O)Nc1ccc(-n2c(=O)c3ccccc3c3ccccc3c2=O)cc1` the Potency was inconclusive: 22.4 µM [inhibitor, partial curve, poor fit].
With `CCn1nc(C(=O)Nc2ccc(Cl)c(S(=O)(=O)N3CCOCC3)c2)c2ccccc2c1=O` the Potency was inconclusive: 17.8 µM [inhibitor, single point].
In the case of `COc1ccc(/C=C/c2cc(=O)c3cc(Cl)ccc3o2)cc1`, the “activity change, negative = inhibition” value is reported as inactive: -24.9%.
With `Cc1ccc(NC(=O)CCSc2ccccn2)cc1` the “activity change, negative = inhibition” value was inactive: 3.62%.
For `COc1ccc(NC(=O)NCc2cccnc2)cc1OC`, the “activity change, negative = inhibition” value was inactive: -6.76%.
In the case of `O=C(COc1cccc(C(F)(F)F)c1)N1CCN(c2ccccc2O)CC1`, the Potency is reported as inconclusive: 12.6 µM [inhibitor, partial curve, poor fit].
For `O=C(NNc1ccccc1)C(=O)NNS(=O)(=O)c1ccc([N+](=O)[O-])cc1`, the Potency was inconclusive: 6.31 µM [inhibitor, partial curve, poor fit].
In the case of `COc1ccc(CNC(=O)c2cc3c(s2)CN(Cc2ccccc2)C3)cc1`, the Potency is reported as inconclusive: 6.31 µM [inhibitor, partial curve, poor fit].
With `COc1ccc(Cl)cc1NC(=O)COC(=O)C1=NNC(=O)CC1` the Potency was inconclusive: 1.26 µM [activator, partial curve, poor fit].
With `Cc1ccccc1CNC(=O)C(=O)NCC(c1ccc2c(c1)OCO2)N1CCOCC1` (centres undefined) the “activity change, negative = inhibition” value was inactive: -2.12% [at 46.1 µM].
For `CN(CCCNC(=O)Cn1ncc2c([nH]c3ccccc32)c1=O)Cc1ccccc1`, the “activity change, negative = inhibition” value was inactive: -8.35% [at 46.1 µM].
For `CCN(CC)C(=O)c1ccc(-c2cccs2)s1`, the Potency was inconclusive: 1.58 µM [activator, partial curve].
For `O=C(N/N=C/c1ccccc1)c1c(O)c2ccccc2[nH]c1=O`, the Potency was inconclusive: 1.26 µM [inhibitor, single point].
For `COc1cccc(OC)c1C(=O)Nc1ccccc1NC(=O)c1c(OC)cccc1OC`, the Potency was inconclusive: 6.31 µM [inhibitor, single point].
For `COc1ccc(/C(N)=N/OC(=O)c2ccco2)cc1`, the Potency was active: 7.08 µM.
In the case of `CCN(CC)c1ccc(-c2nnc(SCC(=O)Nc3ccccc3C#N)n2-c2ccccc2)cc1`, the Potency is reported as active: 11.2 µM.
In the case of `Cc1cc([N+](=O)[O-])nn1CC(=O)Nc1sc2c(c1C(N)=O)CCCC2`, the Potency is reported as inconclusive: 5.62 µM [activator, partial curve, poor fit].
With `COc1ccc(CCNC(=O)c2ccc(Cn3c(=O)c4ccccc4n(Cc4ccc(F)cc4Cl)c3=O)cc2)cc1OC` the “activity change, negative = inhibition” value was inactive: 11.6% [at 46.1 µM].
With `CCN1CCC(O)(C#Cc2ccccc2)CC1` the Potency was inconclusive: 5.62 µM [activator, full curve, poor fit].
In the case of `CCc1nnc(NC(=O)CSc2nnc(-c3ccccc3NC(=O)c3ccccc3)o2)s1`, the “activity change, negative = inhibition” value is reported as inactive: -1.87%.
For `CC(OC(=O)Cn1[nH]c(=O)c2ccccc2c1=O)C(=O)NC1(C#N)CCCCC1` (centres undefined), the “activity change, negative = inhibition” value was inactive: 3.48%.
With `Cc1cccc(C)c1C(=NCCCN(C)C)c1ccccc1` the Potency was inconclusive: 29.1 µM [inhibitor, single point].
With `C=CC(=O)N1C/C(=C/c2ccc(Cl)cc2)C(=O)/C(=C\c2ccc(Cl)cc2)C1` the Potency was active: 2.24 µM.
With `O=C(NC1CCCC1)C(c1cccs1)N(C(=O)c1ccco1)c1ccc2c(c1)OCO2` (centres undefined) the Potency was inconclusive: 20 µM [inhibitor, partial curve, poor fit].
In the case of `O=C1NC(=S)NC(=O)C1c1ccccc1`, the “activity change, negative = inhibition” value is reported as inactive: 9.06% [at 46.1 µM].
With `CC1CN(S(=O)(=O)c2ccc(C(=O)N3CCc4ccccc43)cc2)CC(C)O1` (centres undefined) the “activity change, negative = inhibition” value was inactive: -0.118%.
With `COc1ccc(-n2c(=S)[nH]c3cc(C(=O)Nc4ccc(F)cc4)ccc3c2=O)c(OC)c1` the Potency was inconclusive: 7.08 µM [inhibitor, partial curve, poor fit].
With `CCC(Sc1nc2cc(OC)c(OC)cc2c(=O)n1Cc1ccc(OC)cc1)C(=O)NCCOC` (centres undefined) the Potency was inconclusive: 20 µM [inhibitor, single point].
With `CC(C)Nc1ccc(Nc2ccnc3cc4ccccc4cc23)cc1` the Potency was active: 6.31 µM.
With `COC(=O)C1(Cc2ccccc2)NC(c2ccc(F)cc2)C2C(=O)N(C)C(=O)C21` (centres undefined) the “activity change, negative = inhibition” value was inactive: 15.7%.
In the case of `Cc1cccc(C)c1NC(=O)CCCSc1nnc(-c2ccc(F)cc2)n1-c1ccccc1`, the Potency is reported as inconclusive: 11.2 µM [inhibitor, partial curve, poor fit].
For `O=C(N1CCCC1)C12CC3CCC(CC(C3)C1)C2`, the Potency was inconclusive: 22.4 µM [inhibitor, single point].
With `O=C(CSc1nnc(-c2ccco2)n1Cc1ccccc1)c1ccccc1` the “activity change, negative = inhibition” value was inactive: 2.08%.
For `CNC(=S)NNC(=O)c1ccccc1Br`, the Potency was inconclusive: 0.891 µM [inhibitor, single point].
